Source: PubChem BioAssay AID2685 (National Center for Advancing Translational Sciences (NCATS), 2010)
Some of the results follow. Further columns of the screen follow, without active or inactive calls. Most of these compounds were active or inconclusive in the main read-out, so they are no random draw. The note in brackets gives the kind of curve behind each potency; many fits are weak.

Assay: qHTS Assay for Lipid Storage Modulators in Drosophila S3 Cells;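 as to cell number change: cells counted by Cell Tracker Red CMTPX staining in the red channel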
Settings: BODIPY lipid droplet fluorescence, 18-24 h; for cell number change: measured here: cell count max response, cells fed with added oleic acid
Procedure, shortened: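 Drosophila S3 cells got compounds at several concentrations plus oleic acid (400 uM solution). Laser-scanning cytometry with 488 nm excitation read lipid droplets at 500-530 nm and cells at 575-640 nm. Percent activity was relative to 20 uM Triacsin C.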

[1] = measured here: lipid fluorescence (Fed channel) AC50, cells fed with added oleic acid
[2] = measured here: cell number channel AC50, cells fed with added oleic acid

SMILES | cell number change [%] | AC50 [1] | AC50 [2]
Clc1cc(Br)ccc1OCCOCCN1CCCC1 | 5.25 | 29.1 µM [rising, single point] | 
Cc1ccccc1/C=N\NC(=O)c1csnn1 | 16.7 |  | 
Cc1ccc(/C=N\Nc2nc3ccc(Cl)cc3[nH]2)o1 | 55.9 | 8.2 µM [rising, partial curve] | 3.26 µM [rising, full curve]
N/C(=N\OC(=O)CCCc1ccccc1)c1ccccc1Cl | 0.88 | 0.00731 µM [falling, full curve, poor fit] | 
O=C(O)c1ccccc1NC(=O)C1C2C=CC(C2)C1C(=O)O (stereo not drawn) | -5.74 |  | 
CCN1CCN(C(=S)c2ccc(OCC(=O)NCc3ccccc3)cc2)CC1 | -24.1 | 29.1 µM [falling, single point] | 
C=C(C)COc1ccc2c(CC)cc(=O)oc2c1C | 2.93 | 29.1 µM [rising, single point] | 6.51 µM [rising, single point]
C=CCc1ccccc1OCCSc1nc2ccc([N+](=O)[O-])cc2s1 | -10.3 | 13 µM [rising, partial curve] | 
O=C(NC(=S)Nc1ccccc1O)c1cccnc1 | 7.66 | 0.82 µM [rising, full curve, poor fit] | 
CCOC(=O)C1CCCN(C2CC(=O)N(c3ccc(C)cc3)C2=O)C1 (stereo not drawn) | 1.32 |  | 
COc1cc(C(=O)NCCc2ccccc2)ccc1OCC(=O)N1CCOCC1 | -5.44 | 0.411 µM [falling, partial curve, poor fit] | 
CC(=O)c1ccc(Cc2ccc(C(C)=O)cc2)cc1 | 57.1 | 0.116 µM [rising, full curve, poor fit] | 
Cc1cc(=O)[nH]c(SCC(=O)Nc2nc(-c3ccccc3)c(-c3ccccc3)o2)n1 | -9.11 |  | 
O=C(O)c1ccc(S(=O)(=O)N2CCC(n3nnc4cc(C(F)(F)F)ccc43)CC2)cc1 | 2.56 |  | 
O=C1CCC(C(=O)N2CCCC(C(=O)c3ccc4ccccc4c3)C2)=NN1 (stereo not drawn) | -5.87 | 29.1 µM [falling, partial curve, poor fit] | 
O=C(Nc1ncc2c(n1)-c1ccccc1CC2)c1cccs1 | 0.913 |  | 6.51 µM [rising, partial curve, poor fit]
COc1ccc(-c2nc(C#N)c(N3CCCCCC3)o2)cc1OC | 1.7 |  | 
O=C(NNC(=S)NCC1CCCO1)c1cccc(S(=O)(=O)N2CCOCC2)c1 (stereo not drawn) | -32.7 | 2.31 µM [falling, full curve] | 2.06 µM [falling, full curve]
Cc1sc(NC(=O)CSc2nnc(CCNC(=O)c3cccs3)n2C)nc1-c1ccccc1 | -43 | 10.3 µM [falling, partial curve] | 9.2 µM [falling, partial curve]
O=C(Nc1cccc(S(=O)(=O)N2CCCCC2)c1)C1CC(=O)N(Cc2ccco2)C1 (stereo not drawn) | 12.3 | 18.4 µM [rising, single point] | 

SMILES | cell number change [%] | AC50 [1] | AC50 [2]
O=C(O)CC(NC(=O)Cc1ccccc1)c1cc([N+](=O)[O-])ccc1Cl (stereo not drawn) | -34.6 | 13 µM [falling, partial curve] | 
Cn1c(SCC(=O)NCc2cccs2)nnc1-c1cccs1 | -3.2 | 0.82 µM [falling, full curve, poor fit] | 
CSc1ccc(CN(C)C(=O)CSCC(=O)Nc2ccc(C)cc2)cc1 | -18.6 | 5.8 µM [falling, full curve, poor fit] | 
CCCCS(=O)Cc1ccccc1 (stereo not drawn) | -11.9 | 23.1 µM [falling, partial curve] | 
Cc1ccc2c(c1)nnn2C1CCN(C(=O)C2CCCCC2)CC1 | 57.5 | 2.31 µM [rising, full curve, poor fit] | 23.1 µM [rising, partial curve, poor fit]
CCn1nc(NC(=O)C(C)(C)C)c2cc3cccc(C)c3nc21 |  | 1.64 µM [falling, full curve, poor fit] | 
O=C(COc1ccccc1)OCc1cc(-c2ccco2)on1 | 7.34 | 14.6 µM [rising, partial curve, poor fit] | 
Cc1ccnc(NC(=O)CCC(=O)N(CC(=O)NC2CCCCC2)c2cccc(C)c2C)c1 | 8.79 | 0.92 µM [rising, full curve] | 
O=C(CSc1nc2ccccc2n1Cc1ccccc1)N/N=C/c1ccco1 |  | 0.651 µM [rising, single point] | 
Cc1ccnc2nc(C(=O)NCc3ccccc3)nn12 | 3.96 | 29.1 µM [falling, single point] | 
Cc1oc(C(C)(C)C)cc1C(=O)N1CCN(c2ccc(C(F)(F)F)cn2)CC1 | -4.49 | 0.00461 µM [falling, full curve, poor fit] | 
O=C(CCCN1C(=O)S/C(=C/C=C/c2ccccc2)C1=O)Nc1ccc(C(=O)O)cc1 | -18.9 | 29.1 µM [falling, single point] | 
CCOC(=O)c1sc(-c2cccs2)nc1C | -3.75 | 0.164 µM [falling, full curve, poor fit] | 0.116 µM [falling, full curve, poor fit]
CN(C)c1ccc(C(=O)Nc2nnc(-c3ccc(Cl)cc3)o2)cc1 | -27.2 | 29.1 µM [falling, single point] | 
Cc1ccc2oc3c(c(=O)c2c1)C(c1cccc(Br)c1)N(Cc1ccco1)C3=O (stereo not drawn) | 14.5 | 0.517 µM [rising, full curve, poor fit] | 
COc1ccc(C)cc1NC(=O)C(OC(=O)CNC(=O)c1ccc(Oc2ccccc2)cc1)c1ccccc1 (stereo not drawn) | 4.4 |  | 
CN(C)CC(=O)Nc1nc(-c2ccccc2)cs1 | 8.98 | 0.651 µM [falling, partial curve, poor fit] | 
C=CCc1ccccc1OCC(O)CN1CCN(c2ccccc2OC)CC1 (stereo not drawn) | -43.8 | 16.4 µM [falling, single point] | 16.4 µM [falling, partial curve]
O=C1C(=O)N(Cc2ccccc2)C(c2cccc(O)c2)/C1=C(\O)c1ccc2c(c1)OCCO2 (stereo not drawn) | 14.5 | 0.206 µM [falling, full curve] | 
N#Cc1ccccc1OCC(=O)Nc1nnc(C2CC2)s1 | -13.5 | 0.103 µM [rising, full curve, poor fit] | 

Reformatted comma-delimited: entries from further up
SMILES,cell number change [%],AC50 [1],AC50 [2]
O=C(O)CC(NC(=O)Cc1ccccc1)c1cc([N+](=O)[O-])ccc1Cl (stereo not drawn),-34.6,"13 µM [falling, partial curve]",
Cn1c(SCC(=O)NCc2cccs2)nnc1-c1cccs1,-3.2,"0.82 µM [falling, full curve, poor fit]",
CSc1ccc(CN(C)C(=O)CSCC(=O)Nc2ccc(C)cc2)cc1,-18.6,"5.8 µM [falling, full curve, poor fit]",
CCCCS(=O)Cc1ccccc1 (stereo not drawn),-11.9,"23.1 µM [falling, partial curve]",
Cc1ccc2c(c1)nnn2C1CCN(C(=O)C2CCCCC2)CC1,57.5,"2.31 µM [rising, full curve, poor fit]","23.1 µM [rising, partial curve, poor fit]"
CCn1nc(NC(=O)C(C)(C)C)c2cc3cccc(C)c3nc21,,"1.64 µM [falling, full curve, poor fit]",
O=C(COc1ccccc1)OCc1cc(-c2ccco2)on1,7.34,"14.6 µM [rising, partial curve, poor fit]",
Cc1ccnc(NC(=O)CCC(=O)N(CC(=O)NC2CCCCC2)c2cccc(C)c2C)c1,8.79,"0.92 µM [rising, full curve]",
O=C(CSc1nc2ccccc2n1Cc1ccccc1)N/N=C/c1ccco1,,"0.651 µM [rising, single point]",
Cc1ccnc2nc(C(=O)NCc3ccccc3)nn12,3.96,"29.1 µM [falling, single point]",
Cc1oc(C(C)(C)C)cc1C(=O)N1CCN(c2ccc(C(F)(F)F)cn2)CC1,-4.49,"0.00461 µM [falling, full curve, poor fit]",
O=C(CCCN1C(=O)S/C(=C/C=C/c2ccccc2)C1=O)Nc1ccc(C(=O)O)cc1,-18.9,"29.1 µM [falling, single point]",
CCOC(=O)c1sc(-c2cccs2)nc1C,-3.75,"0.164 µM [falling, full curve, poor fit]","0.116 µM [falling, full curve, poor fit]"
CN(C)c1ccc(C(=O)Nc2nnc(-c3ccc(Cl)cc3)o2)cc1,-27.2,"29.1 µM [falling, single point]",
Cc1ccc2oc3c(c(=O)c2c1)C(c1cccc(Br)c1)N(Cc1ccco1)C3=O (stereo not drawn),14.5,"0.517 µM [rising, full curve, poor fit]",
COc1ccc(C)cc1NC(=O)C(OC(=O)CNC(=O)c1ccc(Oc2ccccc2)cc1)c1ccccc1 (stereo not drawn),4.4,,

(listing goes on)

SMILES | cell number change [%] | AC50 [1] | AC50 [2]
Cc1cccc(OCC(=O)NNC(=O)c2ccccc2OCc2c(C)noc2C)c1 | 8.58 | 0.92 µM [rising, partial curve] | 6.51 µM [rising, single point]
N#C/C(=C\Nc1ccc2c(c1)OCCO2)c1nc2ccccc2[nH]1 | -2.28 | 5.8 µM [falling, partial curve] | 1.64 µM [falling, partial curve]
CCOc1ccc(C(=O)Nc2cc(C)c3c(=O)oc4ccccc4c3n2)cc1 | 7.36 |  | 
O=C(CSc1nnc(Nc2ccccc2F)s1)c1cc2ccccc2o1 | -63.8 | 8.2 µM [falling, partial curve] | 14.6 µM [falling, partial curve]
COc1ccc(OC)c(Cc2nnc(CCC(=O)NCc3nc4ccccc4s3)o2)c1 | -29.7 | 18.4 µM [falling, partial curve, poor fit] | 
Cc1cc(S(=O)(=O)N2CCCC(N3CCOCC3)C2)c(C)cc1Cl (stereo not drawn) | 10.3 | 25.9 µM [rising, single point] | 
O=C(N/N=C/c1cccc(Oc2ccccc2)c1)c1ccncc1 |  | 29.1 µM [rising, single point] | 
COc1ccc(Br)cc1-c1nc(CCl)cs1 | 41.2 |  | 
C[C@@H](C(=O)NCC1CC1)[C@@H]1C[C@@]1(C)[C@@H](NC(=O)OCc1ccccc1)c1ccccc1 | 26.6 | 29.1 µM [rising, single point] | 
COCCN1C(=O)c2ccccc2C(C(=O)NCCN(C)C)C1c1ccc(F)cc1 (stereo not drawn) | -29.3 | 0.411 µM [falling, full curve] | 0.259 µM [falling, full curve, poor fit]
Cc1cc(-c2nnc(CSc3nnc(NC(=O)c4ccc(C(C)(C)C)cc4)s3)o2)ccc1[N+](=O)[O-] | -0.32 | 6.51 µM [rising, single point] | 4.11 µM [rising, single point]
CCOc1cc(/C=N/NC(=O)c2ccccn2)ccc1OC(=O)c1cccs1 | -37.6 | 0.58 µM [rising, single point] | 2.06 µM [falling, partial curve]
COC(=O)c1sc(S(=O)(=O)N2CCN(CCO)CC2)c(C(=O)OC)c1C | -26.5 | 29.1 µM [falling, single point] | 0.259 µM [falling, full curve, poor fit]
CS(=O)(=O)N(CC(=O)N1CCN(C(c2ccccc2)c2ccccc2)CC1)C1CCCCC1 |  | 0.411 µM [falling, partial curve, poor fit] | 
Nc1nc(-c2ccc(Oc3ccccc3)cc2)cs1 | -30.7 | 29.1 µM [falling, single point] | 14.6 µM [falling, single point]
Cc1ccc(C(=O)C2CCN(CC(=O)Nc3ccccc3C)CC2)cc1 | 20.5 | 29.1 µM [rising, single point] | 
CCc1c(C)nc2[nH]nc(-c3ccccc3)n2c1=O | 8.79 |  | 
COc1cc(OC)c(NC(=O)c2ccc(F)cc2)cc1Cl | 53.9 | 5.8 µM [rising, partial curve, poor fit] | 5.8 µM [rising, partial curve, poor fit]
